Some targets named below: BirA*-PHF21A (UniProt Q96BD5); BirA*-CoREST1 (UniProt Q9UKL0); HDAC1-BirA* (UniProt Q13547).
Holding throughout (test): proximity labelling; BioID in HEK293T cells: BirA*-fused bait transiently transfected, 50 uM biotin for 18 hours; lysate sonicated, biotinylated proteins isolated on streptavidin agarose beads, trypsin digest, LC-MS/MS, label free quantitation; enrichment over BirA*-NLS control (Student's t-test, FDR 0.05, S0 = 2); triplicate or quadruplicate

The chains behind the UniProt entries cited, without tags or fusion partners.
UniProt Q96BD5: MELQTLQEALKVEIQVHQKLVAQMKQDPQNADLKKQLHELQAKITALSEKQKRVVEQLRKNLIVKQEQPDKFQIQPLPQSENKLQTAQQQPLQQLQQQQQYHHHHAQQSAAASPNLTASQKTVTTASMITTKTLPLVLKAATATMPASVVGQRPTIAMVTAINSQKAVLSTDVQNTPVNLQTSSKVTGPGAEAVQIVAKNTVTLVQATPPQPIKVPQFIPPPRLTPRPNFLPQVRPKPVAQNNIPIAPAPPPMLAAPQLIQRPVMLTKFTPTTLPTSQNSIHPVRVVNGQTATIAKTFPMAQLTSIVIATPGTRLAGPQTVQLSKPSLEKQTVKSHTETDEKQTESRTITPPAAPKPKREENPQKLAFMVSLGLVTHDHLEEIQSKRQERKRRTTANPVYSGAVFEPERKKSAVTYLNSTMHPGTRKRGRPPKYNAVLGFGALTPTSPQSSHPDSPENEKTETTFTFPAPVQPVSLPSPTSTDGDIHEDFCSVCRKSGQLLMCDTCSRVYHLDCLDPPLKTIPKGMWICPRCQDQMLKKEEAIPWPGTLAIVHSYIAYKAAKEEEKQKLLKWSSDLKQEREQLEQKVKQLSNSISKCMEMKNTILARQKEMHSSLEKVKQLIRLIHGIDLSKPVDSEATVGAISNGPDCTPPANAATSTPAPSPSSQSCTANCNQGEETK
UniProt Q9UKL0: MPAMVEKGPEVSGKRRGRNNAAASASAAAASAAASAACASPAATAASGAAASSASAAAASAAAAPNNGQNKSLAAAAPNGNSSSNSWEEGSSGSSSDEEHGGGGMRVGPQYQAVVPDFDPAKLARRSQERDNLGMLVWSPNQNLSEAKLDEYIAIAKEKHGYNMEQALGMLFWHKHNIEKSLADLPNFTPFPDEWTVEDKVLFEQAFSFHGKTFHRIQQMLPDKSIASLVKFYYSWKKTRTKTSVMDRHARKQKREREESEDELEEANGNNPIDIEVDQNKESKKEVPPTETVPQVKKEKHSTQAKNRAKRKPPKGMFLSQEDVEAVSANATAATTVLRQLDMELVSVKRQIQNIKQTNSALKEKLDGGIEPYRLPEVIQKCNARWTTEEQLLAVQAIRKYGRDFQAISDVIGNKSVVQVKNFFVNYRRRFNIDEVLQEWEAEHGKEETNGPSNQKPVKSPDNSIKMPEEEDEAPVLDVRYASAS
UniProt Q13547: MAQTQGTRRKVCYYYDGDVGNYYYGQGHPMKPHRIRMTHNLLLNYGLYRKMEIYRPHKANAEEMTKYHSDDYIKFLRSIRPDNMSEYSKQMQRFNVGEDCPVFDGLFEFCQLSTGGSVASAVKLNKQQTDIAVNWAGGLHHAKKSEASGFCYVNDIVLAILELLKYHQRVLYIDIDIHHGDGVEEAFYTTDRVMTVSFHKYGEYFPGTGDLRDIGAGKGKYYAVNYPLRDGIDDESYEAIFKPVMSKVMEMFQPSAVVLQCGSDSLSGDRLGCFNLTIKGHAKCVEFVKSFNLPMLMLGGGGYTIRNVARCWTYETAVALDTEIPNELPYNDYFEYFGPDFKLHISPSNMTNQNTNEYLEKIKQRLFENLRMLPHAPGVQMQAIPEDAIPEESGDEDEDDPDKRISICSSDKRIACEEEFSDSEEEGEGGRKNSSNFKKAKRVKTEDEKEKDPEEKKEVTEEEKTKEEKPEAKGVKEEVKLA
UniProt O75461: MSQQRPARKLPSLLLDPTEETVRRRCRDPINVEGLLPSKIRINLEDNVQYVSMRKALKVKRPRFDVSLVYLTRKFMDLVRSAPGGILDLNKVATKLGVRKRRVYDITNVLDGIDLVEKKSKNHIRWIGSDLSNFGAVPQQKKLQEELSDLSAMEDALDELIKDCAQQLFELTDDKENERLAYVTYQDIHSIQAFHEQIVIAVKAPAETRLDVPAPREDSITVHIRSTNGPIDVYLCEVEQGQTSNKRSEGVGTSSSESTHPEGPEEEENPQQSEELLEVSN

No constants are given. Whether binding was seen depends on the method and setting. In cells and extracts the contact can be indirect. Here binding means that the protein was enriched with, or labelled near, the bait; the list need not be complete.

As to CTBP2 (from UniProt P56545 1-445), in the assay with BirA*-PHF21A, the binding result was “binds”.

For E2F6 (from UniProt O75461 1-281), the binding result in the assay with BirA*-CoREST1, with BirA*-PHF21A and in the assay with HDAC1-BirA* was “binds” in each case.

(Values after publication PMC8763317.)
